For assay [1], the target named is human MUC5AC (human) (UniProt P98088). Nature of the assay: staining of sections of Calu-3 cells in transwell.
The target is the same in assay [2]. Description: staining of sections of Calu-3 cells in transwell (legend of FIG. 6A).

The chains behind the UniProt entries cited, without tags or fusion partners. Residues count along the entry.
UniProt P98088, residues 28-5654: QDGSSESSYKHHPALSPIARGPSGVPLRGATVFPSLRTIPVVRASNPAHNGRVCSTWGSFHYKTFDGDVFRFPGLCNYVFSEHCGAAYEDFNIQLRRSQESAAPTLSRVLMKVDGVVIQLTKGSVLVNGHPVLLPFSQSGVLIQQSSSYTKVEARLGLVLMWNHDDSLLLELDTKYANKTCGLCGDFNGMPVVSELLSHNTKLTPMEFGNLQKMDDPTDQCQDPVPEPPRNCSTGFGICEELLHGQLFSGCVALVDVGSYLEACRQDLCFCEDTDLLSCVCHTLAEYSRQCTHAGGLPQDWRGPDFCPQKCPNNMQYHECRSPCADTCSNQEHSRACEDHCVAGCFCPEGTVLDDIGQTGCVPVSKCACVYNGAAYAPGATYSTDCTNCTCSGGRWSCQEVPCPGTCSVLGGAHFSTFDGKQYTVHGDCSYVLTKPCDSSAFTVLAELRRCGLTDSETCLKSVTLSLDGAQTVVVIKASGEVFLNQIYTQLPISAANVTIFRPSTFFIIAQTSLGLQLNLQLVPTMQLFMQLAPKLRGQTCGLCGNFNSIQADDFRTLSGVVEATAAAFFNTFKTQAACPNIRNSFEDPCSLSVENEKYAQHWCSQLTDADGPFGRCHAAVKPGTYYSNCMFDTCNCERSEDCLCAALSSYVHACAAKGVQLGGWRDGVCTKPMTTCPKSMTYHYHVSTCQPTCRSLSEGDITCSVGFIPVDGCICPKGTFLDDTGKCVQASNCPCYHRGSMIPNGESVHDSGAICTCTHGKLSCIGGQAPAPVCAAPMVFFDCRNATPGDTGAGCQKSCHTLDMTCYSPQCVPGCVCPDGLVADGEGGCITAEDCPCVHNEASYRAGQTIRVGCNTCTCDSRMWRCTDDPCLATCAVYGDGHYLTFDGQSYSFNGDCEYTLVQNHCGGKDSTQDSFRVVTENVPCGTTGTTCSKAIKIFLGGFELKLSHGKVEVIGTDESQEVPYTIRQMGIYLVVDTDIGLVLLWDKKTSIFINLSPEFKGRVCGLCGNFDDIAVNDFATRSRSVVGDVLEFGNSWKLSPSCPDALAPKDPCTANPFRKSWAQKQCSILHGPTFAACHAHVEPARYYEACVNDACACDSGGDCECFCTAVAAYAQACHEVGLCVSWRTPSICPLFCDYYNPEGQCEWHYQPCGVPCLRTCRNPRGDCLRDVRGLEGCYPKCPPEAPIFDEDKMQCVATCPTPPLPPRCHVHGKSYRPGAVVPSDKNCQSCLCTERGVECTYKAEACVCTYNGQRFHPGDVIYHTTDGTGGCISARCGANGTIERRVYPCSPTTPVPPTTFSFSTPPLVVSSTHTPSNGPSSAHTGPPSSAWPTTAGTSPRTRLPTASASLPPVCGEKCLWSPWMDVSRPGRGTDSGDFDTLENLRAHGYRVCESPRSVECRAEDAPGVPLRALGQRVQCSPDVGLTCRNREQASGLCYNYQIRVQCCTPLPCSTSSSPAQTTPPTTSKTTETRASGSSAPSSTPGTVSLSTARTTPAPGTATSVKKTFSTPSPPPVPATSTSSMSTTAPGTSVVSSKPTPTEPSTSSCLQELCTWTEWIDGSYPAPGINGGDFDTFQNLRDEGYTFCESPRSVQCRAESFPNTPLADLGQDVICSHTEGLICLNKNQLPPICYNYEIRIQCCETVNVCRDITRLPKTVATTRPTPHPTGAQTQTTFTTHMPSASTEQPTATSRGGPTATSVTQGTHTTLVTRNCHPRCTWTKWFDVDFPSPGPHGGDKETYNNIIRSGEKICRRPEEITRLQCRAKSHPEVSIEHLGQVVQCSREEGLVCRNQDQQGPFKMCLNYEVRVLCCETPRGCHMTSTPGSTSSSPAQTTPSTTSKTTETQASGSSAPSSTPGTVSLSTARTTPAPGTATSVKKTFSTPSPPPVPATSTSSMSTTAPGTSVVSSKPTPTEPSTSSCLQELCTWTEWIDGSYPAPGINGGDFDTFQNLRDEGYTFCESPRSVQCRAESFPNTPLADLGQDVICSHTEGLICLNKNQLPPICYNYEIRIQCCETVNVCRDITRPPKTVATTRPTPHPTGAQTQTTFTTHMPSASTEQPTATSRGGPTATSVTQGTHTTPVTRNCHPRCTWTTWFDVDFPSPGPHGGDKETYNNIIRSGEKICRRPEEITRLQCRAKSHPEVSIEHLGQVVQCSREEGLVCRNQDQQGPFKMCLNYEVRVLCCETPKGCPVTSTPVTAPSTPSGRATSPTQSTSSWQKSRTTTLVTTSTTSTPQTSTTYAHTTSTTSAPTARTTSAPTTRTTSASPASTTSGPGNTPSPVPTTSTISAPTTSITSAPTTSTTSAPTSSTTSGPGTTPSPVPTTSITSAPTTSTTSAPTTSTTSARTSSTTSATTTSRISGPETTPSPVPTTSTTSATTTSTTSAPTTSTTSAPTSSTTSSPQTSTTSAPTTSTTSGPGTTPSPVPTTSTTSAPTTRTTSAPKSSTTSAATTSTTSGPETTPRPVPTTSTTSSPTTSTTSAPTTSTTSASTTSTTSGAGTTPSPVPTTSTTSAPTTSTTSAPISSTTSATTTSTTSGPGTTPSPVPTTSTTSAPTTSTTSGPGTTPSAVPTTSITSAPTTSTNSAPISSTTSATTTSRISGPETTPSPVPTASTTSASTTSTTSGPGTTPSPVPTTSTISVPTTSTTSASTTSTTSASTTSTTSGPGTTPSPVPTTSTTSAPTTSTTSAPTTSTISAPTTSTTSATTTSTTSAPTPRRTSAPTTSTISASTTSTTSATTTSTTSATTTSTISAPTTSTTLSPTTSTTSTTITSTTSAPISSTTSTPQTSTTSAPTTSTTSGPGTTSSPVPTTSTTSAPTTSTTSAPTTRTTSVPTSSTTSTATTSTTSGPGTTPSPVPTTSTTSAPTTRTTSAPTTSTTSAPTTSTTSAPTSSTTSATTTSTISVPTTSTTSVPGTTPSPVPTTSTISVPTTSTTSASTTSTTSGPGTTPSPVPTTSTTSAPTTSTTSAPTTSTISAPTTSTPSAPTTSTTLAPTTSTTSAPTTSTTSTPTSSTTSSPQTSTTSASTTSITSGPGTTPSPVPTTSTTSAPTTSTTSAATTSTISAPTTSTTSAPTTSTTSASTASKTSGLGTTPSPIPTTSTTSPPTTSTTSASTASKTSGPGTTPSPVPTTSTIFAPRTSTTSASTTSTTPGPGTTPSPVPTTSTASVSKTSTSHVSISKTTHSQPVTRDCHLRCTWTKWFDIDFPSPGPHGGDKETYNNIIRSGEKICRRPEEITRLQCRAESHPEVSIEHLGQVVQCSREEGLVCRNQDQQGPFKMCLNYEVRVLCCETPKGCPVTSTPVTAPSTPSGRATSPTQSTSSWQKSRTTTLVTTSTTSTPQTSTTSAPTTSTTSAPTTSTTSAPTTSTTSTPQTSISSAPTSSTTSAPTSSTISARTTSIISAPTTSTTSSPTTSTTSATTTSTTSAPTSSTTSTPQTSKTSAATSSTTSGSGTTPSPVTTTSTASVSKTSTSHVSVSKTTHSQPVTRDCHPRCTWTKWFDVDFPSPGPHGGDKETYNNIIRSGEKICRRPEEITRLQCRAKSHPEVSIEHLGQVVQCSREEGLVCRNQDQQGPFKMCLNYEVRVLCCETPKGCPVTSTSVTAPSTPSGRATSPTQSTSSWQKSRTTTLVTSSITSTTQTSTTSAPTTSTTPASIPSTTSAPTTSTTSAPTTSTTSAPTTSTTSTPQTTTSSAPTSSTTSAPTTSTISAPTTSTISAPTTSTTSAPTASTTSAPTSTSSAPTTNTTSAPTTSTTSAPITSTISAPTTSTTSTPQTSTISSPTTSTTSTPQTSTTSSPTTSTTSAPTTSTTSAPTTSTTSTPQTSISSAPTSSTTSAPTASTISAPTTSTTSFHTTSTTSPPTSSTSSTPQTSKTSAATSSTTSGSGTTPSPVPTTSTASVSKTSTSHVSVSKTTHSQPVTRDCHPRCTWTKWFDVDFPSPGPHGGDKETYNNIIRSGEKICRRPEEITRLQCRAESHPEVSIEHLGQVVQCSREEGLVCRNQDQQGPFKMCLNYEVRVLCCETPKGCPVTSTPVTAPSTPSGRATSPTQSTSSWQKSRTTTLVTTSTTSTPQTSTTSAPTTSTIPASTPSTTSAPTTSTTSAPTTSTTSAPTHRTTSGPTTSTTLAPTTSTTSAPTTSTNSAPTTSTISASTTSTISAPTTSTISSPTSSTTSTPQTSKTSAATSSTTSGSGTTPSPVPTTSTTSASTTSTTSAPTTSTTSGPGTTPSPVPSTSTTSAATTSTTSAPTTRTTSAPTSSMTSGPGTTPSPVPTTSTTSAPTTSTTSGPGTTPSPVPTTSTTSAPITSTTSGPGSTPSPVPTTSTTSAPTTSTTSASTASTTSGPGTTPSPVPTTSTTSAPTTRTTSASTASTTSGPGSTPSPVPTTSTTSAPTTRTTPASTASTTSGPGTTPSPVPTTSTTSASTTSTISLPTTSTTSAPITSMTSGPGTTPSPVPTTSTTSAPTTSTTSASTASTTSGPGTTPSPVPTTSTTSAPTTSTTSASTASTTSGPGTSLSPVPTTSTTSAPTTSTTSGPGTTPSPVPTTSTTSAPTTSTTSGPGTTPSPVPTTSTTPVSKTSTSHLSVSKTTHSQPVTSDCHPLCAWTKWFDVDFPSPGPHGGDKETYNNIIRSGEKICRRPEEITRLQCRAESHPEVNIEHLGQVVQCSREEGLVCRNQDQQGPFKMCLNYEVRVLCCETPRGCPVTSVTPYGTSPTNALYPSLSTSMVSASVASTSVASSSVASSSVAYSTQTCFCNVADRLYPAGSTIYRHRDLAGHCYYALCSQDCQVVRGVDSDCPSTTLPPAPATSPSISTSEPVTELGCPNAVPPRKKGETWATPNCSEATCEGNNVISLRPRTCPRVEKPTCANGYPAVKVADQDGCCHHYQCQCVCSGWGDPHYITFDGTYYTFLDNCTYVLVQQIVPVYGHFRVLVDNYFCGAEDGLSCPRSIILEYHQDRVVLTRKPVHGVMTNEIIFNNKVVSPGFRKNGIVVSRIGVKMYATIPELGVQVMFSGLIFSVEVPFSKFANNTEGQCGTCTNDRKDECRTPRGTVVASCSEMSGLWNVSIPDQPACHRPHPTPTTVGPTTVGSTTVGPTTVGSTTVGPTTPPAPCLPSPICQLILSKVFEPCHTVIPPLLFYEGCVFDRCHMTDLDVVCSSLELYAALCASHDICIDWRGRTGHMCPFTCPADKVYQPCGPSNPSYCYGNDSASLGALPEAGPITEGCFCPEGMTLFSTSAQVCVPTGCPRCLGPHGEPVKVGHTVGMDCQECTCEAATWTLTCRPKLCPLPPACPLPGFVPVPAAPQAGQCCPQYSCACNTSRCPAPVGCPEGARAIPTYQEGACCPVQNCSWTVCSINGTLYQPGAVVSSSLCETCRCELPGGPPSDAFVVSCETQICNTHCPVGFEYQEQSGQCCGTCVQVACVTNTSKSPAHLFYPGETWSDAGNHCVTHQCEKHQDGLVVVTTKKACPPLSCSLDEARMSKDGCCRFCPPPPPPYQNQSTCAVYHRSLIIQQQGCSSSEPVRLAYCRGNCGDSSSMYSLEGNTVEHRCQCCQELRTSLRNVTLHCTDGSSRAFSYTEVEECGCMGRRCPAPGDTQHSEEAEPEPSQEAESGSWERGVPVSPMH

These are yes or no findings as the source states them, for the method shown. Some results given as binding are weak or reduced against the parent protein; the word gives no strength.

B1: mucus-tethering ISV M17 (VHH)
VHH: QVQLQESGGGLVQAGGSLRLSCAASGNISPTYLMGWYRQAPGKEREFVAGIAHGASTNYADSVKGRFTISRDNAKNTVYLQMNSLKPEDTAVYYCAVNPYALDVLVYWGQGTQVTVSS
Take B1: the binding result in the assay with human MUC5AC (human) [1] and in the assay with human MUC5AC (human) [2] was “binds” in each case.

B2: M22 (VHH)
VHH: QVQLQESGGGLVQAGGSLRLSCAASGTISRYIYMGWYRQAPGKEREFVASIARGTITYYADSVKGRFTISRDNAKNTVYLQMNSLKPEDTAVYYCAADNKYEDAYYGYWGQGTQVTVSS
As for B2, the binding result with human MUC5AC (human) [1] and with human MUC5AC (human) [2] was “binds” each time.

Values taken from patent publication US20230218777A1.
